Results taken from PubChem BioAssay AID1347423 (Functional Genomics Laboratory (NCATS/FGL), 2020).
About 210 (0.4%) of roughly 52,000 sequences were called active.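 How the source made its calls: active means gene whose silencing raises cell survival under the drug, median off-target-corrected z-score across its silencing RNAs 2 or more; inactive means the rest.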 The list shows a part of the results.

assay: Resistance to Poly (ADP-Ribose) Polymerase inhibitor: Gene Identification via Genome-wide siRNA Screen; conditions: mouse BRCA2 R2336H ES cells, olaparib, CellTiter-Glo viability; hits give high values
Procedure, shortened: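 Mouse BRCA2 R2336H ES cells were reverse-transfected with siRNA (20 nM final), treated at 48 h with 500 nM olaparib, and read by CellTiter-Glo after 72 h. Scores: MAD-based z per siRNA, median per gene, seed off-target correction.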

Sequence | z-score
CCGGAGAUGUAAAUGCAAATT against Arf4l | inactive: 1.45
CCUCAUCAAUCAGCCUAUGTT against Olfr1178 | inactive: -2.76
CCGGAGUAACUCUCUAACATT against Apbb3 | inactive: -0.925
CGCAUCCGCUAGUAGCUUGTT against Fscn1 | inactive: -0.203
GCCUUAACUAGUUUGUGUCTT against Shh | inactive: 0.538
GCAUGCCUCCAAUAUGCUUTT against Vps35 | inactive: -0.302
GGGAUGUGCUUUCAGGCUGTT against AU040320 | inactive: 0.79
GGAAAAGGAUAAGGAAAGCTT against Atbf1 | inactive: 0.684
GGACGAUGAACAUUGUCCCTT against Gpr19 | inactive: 1.36
GGAGUCCUCAAUACUUUCUTT against C79267 | inactive: -0.827
GGGUCUGUAUCAGCUUGGUTT against Olfr1402 | inactive: -0.979
GGUAAAGCAGUACCUUUCUTT against Mitf | inactive: 0.781
GCAGGUCUAAAACUCUCAUTT against 9330180L21Rik | inactive: 0.668
CCAGGUGUACCUUACGUUGTT against Eif4ebp2 | inactive: 0.839
GGGCUUUCUCAGAAAAGAATT against Olfr508 | inactive: -0.134
GCCAUUUCAUUUCGGACUGTT against Dgkz | inactive: -1.22
GCUGGUGUGUAAUUACGUUTT against Gli | inactive: 0.981
GAAGAUUGGAUUUAAAGCCTT against Olfr667 | inactive: 0.883
GGUGUGCAGAAGAUCUUGCTT against Osbpl6 | inactive: -0.618
GGUUGUUAUAGAAGCUAAUTT against Wnt5a | inactive: 2.31
GGAGGCAGCAGUUAUUGUGTT against Ly6a | inactive: 0.455
GCAGGAAUAUACGAAUCACTT against 4930478A21Rik | inactive: 1.39
GCUAACCUUUGAGUUAGUGTT against Tbc1d12 | inactive: -0.334
GGAACCUGAAAAUGUAUGUTT against Cxcl10 | inactive: 1.57
GGAACAUUUUUAGGACUGUTT against AJ543404 | inactive: -0.715
GAGAAGAGAGAGAAGCAUUTT against Sstk | inactive: -0.746

For reference, part of the list above:
Sequence | z-score
CGCAUCCGCUAGUAGCUUGTT against Fscn1 | inactive: -0.203
GCCUUAACUAGUUUGUGUCTT against Shh | inactive: 0.538
GCAUGCCUCCAAUAUGCUUTT against Vps35 | inactive: -0.302
GGGAUGUGCUUUCAGGCUGTT against AU040320 | inactive: 0.79

Next part.

Sequence | z-score
GGCACUCAGAAAUAUUCAGTT against Nap1l3 | inactive: 0.82
CGUAAAGUGAUUAUAACACTT against AW210570 | inactive: 0.403
GGAUCCUAGGAUUCUUGGUTT against Slfn5 | inactive: -2.49
GCGUACGUUCUCCUAACAUTT against Hbs1l | inactive: 0.603
GGCCUUGAUGGUGAAGAUGTT against E130203B14Rik | inactive: 0.398
GCAAUACUAUUCAGUCCAUTT against Gnai3 | inactive: -0.509
GCAUCUUACGCAUUAAAUCTT against Olfr935 | inactive: 0.555
GCAGAGUUUGCAUGCUGUUTT against 1110051B16Rik | inactive: 0.414
CGUUUUAUGUGGCAAGCAUTT against Olfr1306 | inactive: 0.278
GGCAUCUCUUUGCUUGAAUTT against Lalba | inactive: -1.34
GGAGUGUACAUUCUGAUUGTT against Cd9 | inactive: -0.946
GGUUUAAGAAAAAAGGAGCTT against 1810048P08Rik | inactive: 0.304
GGGCAUUGGCAAGAAAAAGTT against D030015G18Rik | inactive: -0.551
GGCAGUGACUCUUCAGAAGTT against Ibsp | inactive: -1.07
GGAAACCUGGAAACAGUUUTT against 2210421G13Rik | inactive: -0.602
GGAGGUGAACCAUAGAGAGTT against BC035295 | inactive: -0.806
CGAGAGAAGCCCAUCAUCATT against Nrg4 | inactive: -0.2
GGCAUUAGCAUCUACCCAGTT against Syt11 | inactive: 0.242
GGAUUGCUCCGAGAACAUCTT against Grcc9 | inactive: 0.084
CCUACACUAAAAUUCACCATT against D730046L02Rik | inactive: 0.0902
GGCAGGUGUUAAGGCUUCATT against Tas2r117 | inactive: -1.32
CCACAAUGUUACCCAGAAUTT against Gpr64 | inactive: -0.504
GGUAUUCCUGUCUCAGGUCTT against Matn1 | inactive: 0.49
GGCUUCAUUUACUGUAACGTT against Flrt3 | inactive: -0.683
CCCUAACAUACUGGAGCUATT against 4832406C22 | inactive: -1.69
GGAGAUCUUGAUUAGCGAATT against 4930401F20Rik | inactive: -0.281

Sequence | z-score
GCACCUAGCAUAGCAAUGGTT against Slc24a1 | inactive: -1.34
GGAAGAAGUACUGAGAAGATT against Ctsq | inactive: 0.62
GGCCACACUUUGAAGUGACTT against Set7 | inactive: -0.153
GGGACAUUAAUAAACCUGATT against Omg | inactive: -1.21
GCCCACUAUUAUCGAUAUGTT against Nspc1 | inactive: -0.0988
GGGUAGAAUGACUUUGGCCTT against Cldn2 | inactive: 0.488
GGAUGUCCUUGUUUCCUUCTT against Sult5a1 | inactive: 0.582
GGAAAAGAUCAACCAUUAUTT against 1700007N18Rik | inactive: -1.57
GAUUGCUACUCUGGCUUUATT against Tm4sf10 | inactive: -2.46
GGAAAUAGAUUCAUUGAAGTT against Slc6a14 | inactive: 0.884
CCUGUUUCAGUCAUUAGUGTT against Slc22a2 | inactive: -0.256
GCUGAGAAAUUGUCUACGCTT against Ngfrap1 | inactive: 0.985
GGAUGUACAGUGCAUUUUGTT against D10Bur2e | inactive: 0.407
GGCAAGAUCCACAUCAACUTT against LOC434008 | inactive: 2.2
UUUGCUGUCCUUUCUUUCATT against Olfr122 | inactive: -0.703
GGAGCAGUGCAUUGAGACCTT against Adcy6 | inactive: 1.28
GGCUGAGAAGCAAAAACUCTT against Olfr1496 | inactive: 0.628
GGAGAUUAACCGGAGAAUGTT against Ptpra | inactive: 1.2
GGAGAAGCUGAAAUUGAAATT against Cfi | inactive: -0.0106
GGAUACCUAUAGAAAAUGUTT against 5730592L21Rik | inactive: 1.08
GGGUUGAUUUGGUGUUUUATT against Usp46 | inactive: 0.344
CCAUGCCAAGUCUCUACACTT against BC014685 | inactive: -0.807
GCAAAAAUGGUUCUCCAUATT against Plxnc1 | inactive: -0.777
GGGUCGGCUUAUAAUUACUTT against 4930523C11Rik | inactive: -1.01
GGUAUUGUCUCUAGGAGACTT against 4932414J04 | inactive: 0.161
GCUGCUGAGACGGUUACCUTT against AL022818 | inactive: -0.864

Sequence | z-score
GGUAAACCUGCCAAUUUUGTT against 9230106D23Rik | inactive: 0.573
GGUGAACGCAUCCGCUAGUTT against Fscn1 | inactive: -0.197
GGUUUCCUGACAGAAAACCTT against 4930511H01Rik | inactive: 0.804
CGCGUUCGGUUAUGUAAAUTT against Wnt1 | inactive: -0.72
GGAGAAAAUCCAUCUUGAATT against AU018778 | inactive: 0.214
CCCAGGCCACUGAUCUAAGTT against Chrm5 | inactive: 1.01
GGGUUUGGUCUCAUAUAAATT against Samd7 | inactive: 0.617
GGAACUGGACAUCCAAACUTT against B3galt2 | inactive: 0.513
GGCUUUCAGAAGUUUAUCATT against Gpr49 | inactive: -0.818
CCUGCCAUAGUUAGUUUUUTT against AY238603 | inactive: 1.58
CCAGGAUUGAUUUAGAAAATT against D730018G16 | inactive: 0.172
CCACGAUUGCCAAACGUGATT against Dido1 | inactive: -0.194
CCAUGAAUACCGAUGAGGATT against Kcnk9 | inactive: 0.536
GAUUUUCCUGCUCACAAUGTT against Olfr1269 | inactive: 0.547
GGUCAUCGGGUAAUUAAUCTT against Rad52 | inactive: 0.819
CGCGCUGCUCAAAAACUAUTT against Gh | inactive: 0.0846
CGAAUUCAAAAAGCUAGAGTT against Gsto1 | inactive: -0.281
GCUGUGAAGAAUCAGAUAGTT against Aatf | inactive: -0.722
UGGAUACUCUAUCUCAAGCTT against Serpinb9g | inactive: -1.08
GGUCACAUGGAGCUUUAUGTT against Il4ra | inactive: 0.82
CCCACCUAGGUUCAUCCCATT against Fath | active: 2.93
GGAAGACAUGGUUUUGAAGTT against V1rh1 | inactive: -0.8
GGCAUCUAUACCAGUAAUATT against Mllt6 | inactive: 0.806
GGAACUGGCAAGACAACCATT against Rfc2 | inactive: -3
CCUGAAAGCUAAUAUGAAATT against Defb49 | inactive: 0.471
GCACUAGUUCUCAAUUUAATT against Antxr1 | inactive: 0.317

Reformatted with tabs: part of the list above.
Sequence	z-score
GGUCAUCGGGUAAUUAAUCTT against Rad52	inactive: 0.819
CGCGCUGCUCAAAAACUAUTT against Gh	inactive: 0.0846
